Test results published in the supplement of paper PMC10849652.
The list shows a part of the results.

Protein sequences, listed by entry. Tags and fused reporters are not part of them. Lines headed by an entry give the natural chain unless they say otherwise; changes in a name come on top.
UniProt Q8TBQ9: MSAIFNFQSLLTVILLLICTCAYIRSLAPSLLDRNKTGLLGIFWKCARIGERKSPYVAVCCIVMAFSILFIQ
UniProt Q9NZR1: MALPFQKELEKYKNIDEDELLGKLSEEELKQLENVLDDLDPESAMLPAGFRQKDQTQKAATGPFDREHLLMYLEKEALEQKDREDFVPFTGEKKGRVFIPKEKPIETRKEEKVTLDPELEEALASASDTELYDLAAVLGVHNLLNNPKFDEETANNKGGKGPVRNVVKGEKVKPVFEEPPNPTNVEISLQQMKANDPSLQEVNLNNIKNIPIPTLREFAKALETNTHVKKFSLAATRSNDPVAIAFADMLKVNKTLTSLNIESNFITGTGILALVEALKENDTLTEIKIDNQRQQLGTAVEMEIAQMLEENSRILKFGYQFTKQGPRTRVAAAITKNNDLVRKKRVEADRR
UniProt Q9Y4G6: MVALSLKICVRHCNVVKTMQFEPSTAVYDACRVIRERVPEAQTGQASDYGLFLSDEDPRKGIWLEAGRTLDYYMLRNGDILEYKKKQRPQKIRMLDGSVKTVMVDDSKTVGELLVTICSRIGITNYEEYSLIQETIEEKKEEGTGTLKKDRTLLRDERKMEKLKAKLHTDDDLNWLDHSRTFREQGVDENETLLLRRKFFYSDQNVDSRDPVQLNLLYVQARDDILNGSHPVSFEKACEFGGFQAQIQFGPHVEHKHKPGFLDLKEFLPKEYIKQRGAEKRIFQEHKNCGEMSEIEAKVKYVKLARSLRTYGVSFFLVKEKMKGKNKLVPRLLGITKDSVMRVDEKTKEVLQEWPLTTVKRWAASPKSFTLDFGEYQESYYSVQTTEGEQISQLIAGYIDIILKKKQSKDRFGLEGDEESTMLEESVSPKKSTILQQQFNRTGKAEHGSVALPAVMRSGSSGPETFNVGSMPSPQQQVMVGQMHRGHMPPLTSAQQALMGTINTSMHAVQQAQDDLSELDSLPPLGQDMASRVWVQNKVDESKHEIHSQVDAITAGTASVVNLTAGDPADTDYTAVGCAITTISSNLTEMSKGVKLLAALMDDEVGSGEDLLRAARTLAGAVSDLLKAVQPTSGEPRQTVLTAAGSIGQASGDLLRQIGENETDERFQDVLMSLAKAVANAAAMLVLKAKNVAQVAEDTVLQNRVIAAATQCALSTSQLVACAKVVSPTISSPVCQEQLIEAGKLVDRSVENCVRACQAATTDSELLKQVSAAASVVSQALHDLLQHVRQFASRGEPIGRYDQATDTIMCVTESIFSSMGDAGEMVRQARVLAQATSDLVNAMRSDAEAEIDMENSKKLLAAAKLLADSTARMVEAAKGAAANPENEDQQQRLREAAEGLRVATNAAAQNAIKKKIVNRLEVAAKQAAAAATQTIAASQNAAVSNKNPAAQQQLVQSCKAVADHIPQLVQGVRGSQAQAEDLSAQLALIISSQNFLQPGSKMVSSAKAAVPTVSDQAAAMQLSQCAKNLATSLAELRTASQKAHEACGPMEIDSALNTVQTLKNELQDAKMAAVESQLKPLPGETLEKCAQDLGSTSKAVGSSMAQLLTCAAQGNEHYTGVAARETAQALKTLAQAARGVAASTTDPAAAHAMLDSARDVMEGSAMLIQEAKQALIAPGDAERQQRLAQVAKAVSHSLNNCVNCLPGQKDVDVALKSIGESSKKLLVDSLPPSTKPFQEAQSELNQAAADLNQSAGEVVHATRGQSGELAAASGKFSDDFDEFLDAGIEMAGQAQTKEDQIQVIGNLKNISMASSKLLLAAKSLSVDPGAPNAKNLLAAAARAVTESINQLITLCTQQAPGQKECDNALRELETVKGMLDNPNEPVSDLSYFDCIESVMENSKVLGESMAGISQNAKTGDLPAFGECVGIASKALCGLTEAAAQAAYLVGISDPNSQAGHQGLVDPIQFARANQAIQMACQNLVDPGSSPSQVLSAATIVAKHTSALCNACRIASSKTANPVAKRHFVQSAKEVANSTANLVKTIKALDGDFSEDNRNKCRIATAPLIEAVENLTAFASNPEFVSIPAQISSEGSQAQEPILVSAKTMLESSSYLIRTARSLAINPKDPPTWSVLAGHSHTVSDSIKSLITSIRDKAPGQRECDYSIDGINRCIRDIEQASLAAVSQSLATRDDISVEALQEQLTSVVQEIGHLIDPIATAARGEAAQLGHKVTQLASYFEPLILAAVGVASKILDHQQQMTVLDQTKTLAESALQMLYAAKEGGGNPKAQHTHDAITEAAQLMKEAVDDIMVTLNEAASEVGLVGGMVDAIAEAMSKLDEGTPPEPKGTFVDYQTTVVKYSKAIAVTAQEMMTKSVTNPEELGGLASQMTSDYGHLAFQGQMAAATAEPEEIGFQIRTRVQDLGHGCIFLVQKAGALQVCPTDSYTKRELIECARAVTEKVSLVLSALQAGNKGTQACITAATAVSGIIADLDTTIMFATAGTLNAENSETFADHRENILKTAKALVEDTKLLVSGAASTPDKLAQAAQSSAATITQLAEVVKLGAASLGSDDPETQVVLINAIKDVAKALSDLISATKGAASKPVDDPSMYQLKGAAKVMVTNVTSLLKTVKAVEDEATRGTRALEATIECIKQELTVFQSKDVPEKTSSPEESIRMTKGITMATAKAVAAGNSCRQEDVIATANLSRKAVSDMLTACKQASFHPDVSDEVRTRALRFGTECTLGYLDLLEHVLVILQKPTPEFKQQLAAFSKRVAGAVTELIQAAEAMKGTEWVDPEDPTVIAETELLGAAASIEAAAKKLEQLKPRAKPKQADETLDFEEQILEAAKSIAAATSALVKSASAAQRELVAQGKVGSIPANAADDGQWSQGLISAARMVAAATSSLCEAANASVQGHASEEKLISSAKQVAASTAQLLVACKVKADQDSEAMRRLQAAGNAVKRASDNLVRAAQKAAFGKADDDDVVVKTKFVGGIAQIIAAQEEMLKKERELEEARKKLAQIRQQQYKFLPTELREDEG
UniProt Q9Y490: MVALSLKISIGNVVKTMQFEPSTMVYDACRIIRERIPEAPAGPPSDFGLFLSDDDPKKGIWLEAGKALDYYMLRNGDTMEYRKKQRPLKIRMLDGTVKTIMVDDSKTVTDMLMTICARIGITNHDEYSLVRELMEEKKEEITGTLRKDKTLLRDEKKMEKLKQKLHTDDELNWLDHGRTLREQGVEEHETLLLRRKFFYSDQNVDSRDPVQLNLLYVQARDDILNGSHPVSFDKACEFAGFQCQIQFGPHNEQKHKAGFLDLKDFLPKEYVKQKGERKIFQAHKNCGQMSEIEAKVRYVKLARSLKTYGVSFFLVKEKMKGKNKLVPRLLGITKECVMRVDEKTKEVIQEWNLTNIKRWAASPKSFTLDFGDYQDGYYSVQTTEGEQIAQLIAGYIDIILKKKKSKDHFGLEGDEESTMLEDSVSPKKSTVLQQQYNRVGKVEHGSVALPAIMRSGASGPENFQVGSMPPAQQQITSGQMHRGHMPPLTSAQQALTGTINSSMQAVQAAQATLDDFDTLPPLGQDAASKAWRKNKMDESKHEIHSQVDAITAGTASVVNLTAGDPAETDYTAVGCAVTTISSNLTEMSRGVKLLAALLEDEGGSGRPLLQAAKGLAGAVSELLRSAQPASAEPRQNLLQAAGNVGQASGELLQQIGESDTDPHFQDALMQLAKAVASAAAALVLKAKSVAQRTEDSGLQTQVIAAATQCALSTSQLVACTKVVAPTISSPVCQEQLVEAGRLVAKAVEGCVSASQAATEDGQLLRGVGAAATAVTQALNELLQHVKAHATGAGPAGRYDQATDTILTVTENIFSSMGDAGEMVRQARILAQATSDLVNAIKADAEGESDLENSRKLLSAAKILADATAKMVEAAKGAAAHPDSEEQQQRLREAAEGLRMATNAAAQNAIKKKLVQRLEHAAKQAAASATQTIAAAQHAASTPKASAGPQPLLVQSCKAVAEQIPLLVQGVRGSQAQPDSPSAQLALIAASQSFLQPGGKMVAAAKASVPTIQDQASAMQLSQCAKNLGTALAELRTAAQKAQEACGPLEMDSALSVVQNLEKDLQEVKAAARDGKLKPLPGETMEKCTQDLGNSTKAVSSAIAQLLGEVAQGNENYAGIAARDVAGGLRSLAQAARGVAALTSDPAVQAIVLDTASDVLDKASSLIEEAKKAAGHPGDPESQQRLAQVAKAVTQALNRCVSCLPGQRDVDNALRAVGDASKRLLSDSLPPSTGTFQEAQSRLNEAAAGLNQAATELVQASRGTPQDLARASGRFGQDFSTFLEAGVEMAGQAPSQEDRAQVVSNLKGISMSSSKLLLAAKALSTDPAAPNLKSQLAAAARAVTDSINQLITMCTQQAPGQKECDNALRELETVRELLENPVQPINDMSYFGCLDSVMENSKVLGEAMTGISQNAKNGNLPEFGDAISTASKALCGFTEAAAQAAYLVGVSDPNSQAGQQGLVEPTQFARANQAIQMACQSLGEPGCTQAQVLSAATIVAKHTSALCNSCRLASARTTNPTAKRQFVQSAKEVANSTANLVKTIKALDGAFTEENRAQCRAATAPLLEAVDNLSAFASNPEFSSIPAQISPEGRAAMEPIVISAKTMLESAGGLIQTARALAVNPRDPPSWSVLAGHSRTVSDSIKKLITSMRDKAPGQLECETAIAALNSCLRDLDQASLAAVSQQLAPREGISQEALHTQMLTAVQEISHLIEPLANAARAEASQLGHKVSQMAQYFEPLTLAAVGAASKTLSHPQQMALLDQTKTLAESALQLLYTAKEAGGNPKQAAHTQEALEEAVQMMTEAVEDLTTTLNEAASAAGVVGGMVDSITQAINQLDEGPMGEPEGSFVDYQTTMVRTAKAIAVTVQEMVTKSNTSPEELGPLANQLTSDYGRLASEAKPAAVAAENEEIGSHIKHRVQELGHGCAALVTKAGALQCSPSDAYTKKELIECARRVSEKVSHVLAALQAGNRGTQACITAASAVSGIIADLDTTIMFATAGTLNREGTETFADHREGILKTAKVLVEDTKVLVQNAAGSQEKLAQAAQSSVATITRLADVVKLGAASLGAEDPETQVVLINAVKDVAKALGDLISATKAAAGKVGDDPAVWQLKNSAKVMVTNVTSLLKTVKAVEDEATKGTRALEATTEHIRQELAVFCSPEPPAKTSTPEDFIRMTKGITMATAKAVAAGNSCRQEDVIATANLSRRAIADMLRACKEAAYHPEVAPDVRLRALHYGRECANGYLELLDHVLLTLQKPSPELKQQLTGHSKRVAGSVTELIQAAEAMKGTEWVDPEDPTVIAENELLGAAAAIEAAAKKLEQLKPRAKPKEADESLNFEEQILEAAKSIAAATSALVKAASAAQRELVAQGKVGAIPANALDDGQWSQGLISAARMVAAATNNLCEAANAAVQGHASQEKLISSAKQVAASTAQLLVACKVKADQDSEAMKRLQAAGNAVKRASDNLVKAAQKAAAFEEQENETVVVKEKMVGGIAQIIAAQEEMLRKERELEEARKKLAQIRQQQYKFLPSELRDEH
UniProt P42167: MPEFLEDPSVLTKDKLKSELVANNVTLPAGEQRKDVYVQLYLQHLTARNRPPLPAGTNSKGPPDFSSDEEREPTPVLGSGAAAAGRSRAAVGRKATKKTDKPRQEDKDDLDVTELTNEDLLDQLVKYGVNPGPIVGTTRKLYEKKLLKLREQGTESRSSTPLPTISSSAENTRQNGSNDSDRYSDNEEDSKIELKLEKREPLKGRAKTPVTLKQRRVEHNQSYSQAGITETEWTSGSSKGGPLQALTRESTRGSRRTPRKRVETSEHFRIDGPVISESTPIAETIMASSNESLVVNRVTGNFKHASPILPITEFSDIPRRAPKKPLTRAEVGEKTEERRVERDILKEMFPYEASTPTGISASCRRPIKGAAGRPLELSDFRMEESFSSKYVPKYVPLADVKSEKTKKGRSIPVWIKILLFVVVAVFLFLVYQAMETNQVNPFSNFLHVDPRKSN
UniProt Q9NYL9: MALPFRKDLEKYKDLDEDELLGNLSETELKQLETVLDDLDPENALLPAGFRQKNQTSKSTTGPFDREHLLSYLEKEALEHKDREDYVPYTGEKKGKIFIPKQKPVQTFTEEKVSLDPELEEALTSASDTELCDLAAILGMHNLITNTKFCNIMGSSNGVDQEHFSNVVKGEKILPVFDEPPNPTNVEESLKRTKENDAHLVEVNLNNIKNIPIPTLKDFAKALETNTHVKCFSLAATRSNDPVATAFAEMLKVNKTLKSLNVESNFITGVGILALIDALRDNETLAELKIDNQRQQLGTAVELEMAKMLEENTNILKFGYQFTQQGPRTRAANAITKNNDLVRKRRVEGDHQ
UniProt Q15363: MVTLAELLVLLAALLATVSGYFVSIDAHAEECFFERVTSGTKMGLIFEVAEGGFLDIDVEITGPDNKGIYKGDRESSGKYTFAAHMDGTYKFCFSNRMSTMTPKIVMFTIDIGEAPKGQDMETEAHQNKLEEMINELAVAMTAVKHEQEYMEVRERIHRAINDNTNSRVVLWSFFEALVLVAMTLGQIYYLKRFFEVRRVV
UniProt P63313: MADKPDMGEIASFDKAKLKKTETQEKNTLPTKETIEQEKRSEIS

compound: COC1=CC=C(C=C1)CN2C=CC3=C2C=C(C=C3)C(=O)NO; assay: log2 fold change, soluble protein after heating vs DMSO (PISA); higher = thermal stabilisation; K562 cells, 10 uM, 30 min; active = over 0.2 and 3.5 SD of the protein, either way, in both replicates (recomputed)
Summary of the method: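 Soluble protein was defined as the supernatant after 21,000xg for 90 min. It came from K562 cells at 2×10^6 cells/mL given 10 μM compound for 30 min, heated in aliquots for 3 min across 48°C-58°C, pooled, and extracted in PBS with 0.5% NP-40 at 4°C, and was quantified by TMTpro 16plex LC-MS/MS with equalised channel sums. Thermal stability against control samples, from duplicates, is reported as log2 fold change.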

log2 fold change, inactive:
TMEM245 (UniProt Q9H330) -0.002
TMEM167A (UniProt Q8TBQ9) 0.068
TMOD2 (UniProt Q9NZR1) 0.024
TMED4 (UniProt Q7Z7H5) -0.005
TMEM14C (UniProt Q9P0S9) -0.043
TLN2 (UniProt Q9Y4G6) 0.024
TMEM109 (UniProt Q9BVC6) 0.009
TM2D3 (UniProt Q9BRN9) 0.024
TMEM186 (UniProt Q96B77) -0.078
TMEM141 (UniProt Q96I45) -0.092
TMEM65 (UniProt Q6PI78) -0.083
TMEM87A (UniProt Q8NBN3) 0.005
TMEM33 (UniProt P57088) -0.015
TLN1 (UniProt Q9Y490) 0.109
TNFRSF10B (UniProt O14763) -0.054
TMEM160 (UniProt Q9NX00) -0.231
TM9SF3 (UniProt Q9HD45) -0.025
TMPO isoform 2 (UniProt P42167) -0.155
TMOD3 (UniProt Q9NYL9) -0.006
TMEM222 (UniProt Q9H0R3) -0.016
TMEM185B (UniProt Q9H7F4) -0.117
TMA16 (UniProt Q96EY4) -0.156
TMEM30A (UniProt Q9NV96) -0.098
TMEM68 (UniProt Q96MH6) 0.134
TMCO1 (UniProt Q9UM00) -0.142
TMED2 (UniProt Q15363) -0.018
TMX4 (UniProt Q9H1E5) -0.028
TMEM168 (UniProt Q9H0V1) -0.026
TMPO (UniProt P42166) -0.002
TMEM259 (UniProt Q4ZIN3) -0.016
TMSB10 (UniProt P63313) 0.005
TMEM248 (UniProt Q9NWD8) -0.026
TMED3 (UniProt Q9Y3Q3) -0.142
TMEM209 (UniProt Q96SK2) -0.012
TMEM230 isoform 2 (UniProt Q96A57) 0.037
TMED1 (UniProt Q13445) -0.066
TMPO (UniProt P42167) -0.059
TMEM62 (UniProt Q0P6H9) 0.02
TMEM11 (UniProt P17152) -0.039

Three entries picked at random from those above, as already listed:
log2 fold change, inactive:
TMED3 (UniProt Q9Y3Q3) -0.142
TMPO isoform 2 (UniProt P42167) -0.155
TMEM65 (UniProt Q6PI78) -0.083
